Values quoted from earlier work, collected in patent US20230355596A1, “COMPOSITIONS AND METHODS OF USING NMDAR INHIBITORS AND KINASE INHIBITORS TO TREAT LIVER CANCER” (The University of Hong Kong, priority 2022, published 2023).
At least one compound was matched to its structure with a doubt left.

Assays:
HCC patients [1] = conditions: cited from earlier work
HCC patients [2] = conditions: single arm phase II; cited from earlier work

| Compound | HR, time to progression versus placebo (HCC patients [1]; P=0.04) | Time to progression of HCC (HCC patients [1]; phase II, second line, n=71) [months] | median time to progression of HCC (HCC patients [1]; subgroup with high tissue MET levels (n=22)) [months] | efficacy in the treatment of the HCC (HCC patients [2]) |
| --- | --- | --- | --- | --- |
| O=C1NC(=O)[C@@H](c2cn3c4c(cccc24)CCC3)[C@@H]1c1c[nH]c2ccccc12 [tivantinib] | 0.64 | 1.6 | 2.7 | – |
| Cc1ccc(F)c(NC(=O)Nc2ccc(-c3cccc4[nH]nc(N)c34)cc2)c1 [linifanib] | – | – | – | effective |
